Source: patent US20050009868A1, “Retinoid receptor pan-antagonists for stimulating chondrogenesis” (priority 2001, published 2005)
Some entries share one result that the patent states for a list of compounds. At least one structure is not confirmed: it was looked up by name or label, or the drawing left a doubt.

Assays:
Sox9 = experiment: Real-time quantitative PCR of Sox9 transcripts in primary limb mesenchymal cells; format: cell-based, mouse; settings: 500 μM, 2-day treatment
Col2a1 = experiment: Real-time quantitative PCR of Col2a1 transcripts in primary limb mesenchymal cells; format: cell-based, mouse; settings: 500 μM, 2-day treatment

Nc1ncnc2c1nc(Sc1ccc(Cl)cc1)n2[C@@H]1O[C@@H]2COP(=O)(O)O[C@H]2[C@H]1O [pCPT-cAMP, 8-(4-chlorophenylthio)-cAMP]
increase in Sox9 expression relative to rRNA (Sox9): more than 2 fold | increase in Col2a1 expression relative to rRNA (Col2a1): more than 2 fold
